For 42 sequences, binding signal results are on record in publication PMC7819943, “Rice protein-binding microarrays: a tool to detect cis-acting elements near promoter regions in rice”.

Amino acid sequences for entries named in this document (tags omitted).
UniProt Q0JBA9, entry or part of it: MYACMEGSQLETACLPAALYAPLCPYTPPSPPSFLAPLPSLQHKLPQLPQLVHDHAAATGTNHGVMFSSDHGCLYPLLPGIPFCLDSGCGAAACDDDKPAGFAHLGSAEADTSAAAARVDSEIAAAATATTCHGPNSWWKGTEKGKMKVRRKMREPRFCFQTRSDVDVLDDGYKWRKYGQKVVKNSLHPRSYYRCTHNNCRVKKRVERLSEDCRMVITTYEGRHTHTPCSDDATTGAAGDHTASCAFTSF

The list shows a part of the results.

This assay deals with OsWRKY34 (Oryza sativa, UniProt Q0JBA9 1-250). Put plainly: protein-binding microarray (RPBM); PBS, 2% BSA, 51.3 ng/ul salmon testes DNA, 50 uM zinc acetate, 200 nM TF, 25 C, 1 h; high values mean tight binding. To be noted: protein: recombinant; tags: N-terminal polyhistidine and DsRed monomer fusion (pET32a); label: CyDye5-dUTP incorporated in the synthesized complementary strand; 3' TTTTT single-stranded linker to array surface; dsDNA, one strand shown. The gist of the method: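 Ni–NTA purification followed expression in E. coli BL21-CodonPlus of transcription factors fused N-terminally to a polyhistidine tag and DsRed. At 200 nM in PBS with 2% BSA, salmon testes DNA and 50 µM zinc acetate, the protein was incubated for 1 h at 25 °C with a custom Agilent array that had been primer-extended with Cy5-dUTP and blocked with 2% BSA. After washing, the array was read on an Axon 4000B scanner. The binding signal is per-feature fluorescence intensity in arbitrary units.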
As for “GGTTTTCCCTGGATGCCGAGAGGGTTTGGGTGCGCGCCGCCGGAGTCACCTAGTGCAG”, the binding signal was 8910 fluorescence intensity (a.u.).

Consider “TCGTCGCCTGGGTCGCCGTCTCGCTTGGATTCTTCGCGTCCGGAGTCACCTAGTGCAG”, for which the binding signal was 12900 fluorescence intensity (a.u.). In the case of “TGCTTACATGGTGTGTTCCTAATCGAATTTATTTTCTTTACGGAGTCACCTAGTGCAG”, the binding signal was 9710 fluorescence intensity (a.u.). For “CGGAAGGTGTGTTTATTCAGTTAGTTCAGCGTTTGCCCTGCGGAGTCACCTAGTGCAG” the value was 8150 fluorescence intensity (a.u.); for “TTTCCTTGCCGTCGCTGCACTTGTTTTATCCAAGACTAATCGGAGTCACCTAGTGCAG”, 12000 fluorescence intensity (a.u.); for “CGCACGCCTCACACTATCCCCACTCCACTCTCCCATCACTCGGAGTCACCTAGTGCAG”, 8240 fluorescence intensity (a.u.). For “GTTGCACGACTTATCAACGTGTTATGTACTTATGTGCCATCGGAGTCACCTAGTGCAG” the value was 8590 fluorescence intensity (a.u.); for “CGCTCCACTCTTTTAGTTTGTATCTGTGTCTACTCCACTCCGGAGTCACCTAGTGCAG”, 11500 fluorescence intensity (a.u.). On to “CCCACATCGCTCCGCGTCATTAGATTTAGCACTTTATCTTCGGAGTCACCTAGTGCAG”, for which the binding signal was 8030 fluorescence intensity (a.u.). As for “AACGACGACGAGCAGCAGCAGCAGCAGCACCACCACCACCCGGAGTCACCTAGTGCAG”, the binding signal is 8340 fluorescence intensity (a.u.). As for “ACCCTGGAAATCATGGCTAGATAATCTGTAATTTGTTCTTCGGAGTCACCTAGTGCAG”, the figure is 9390 fluorescence intensity (a.u.); as for “ACTCTAAATTTTAGTTCACCAAATCCTTTCGAAATTTCACCGGAGTCACCTAGTGCAG”, 8400 fluorescence intensity (a.u.); as for “GAGATCGAGGTCTCGAGGTCGTTGGTTGGTTGGTTGCATGCGGAGTCACCTAGTGCAG”, 9770 fluorescence intensity (a.u.). Consider “ACTCTATACATGTGTCTAAATATTTGATACGATATTTTTTCGGAGTCACCTAGTGCAG”, for which the binding signal is 9050 fluorescence intensity (a.u.).

On to “TATTGTGAATTTGTGATCCTTACCTTTACATTTGAGTTATCGGAGTCACCTAGTGCAG”, for which the binding signal is 8980 fluorescence intensity (a.u.). For “GAACGCGCCCCGGTCTCCTCTGCATTGCAACCACCTGAAACGGAGTCACCTAGTGCAG”, the binding signal was 10400 fluorescence intensity (a.u.). As for “CGGTGGTGGTAATTTGAGCTTGCTTTGAACTTTGAAAAGTCGGAGTCACCTAGTGCAG”, the figure is 9020 fluorescence intensity (a.u.); as for “TTCCTATGGTATTTACGTCGTGGGGTAGTTTTGACAAGGGCGGAGTCACCTAGTGCAG”, 10700 fluorescence intensity (a.u.). On to “GTAGCTCTCTTCTTGGTCCGATCTCGTCTCTCCCGGCATGCGGAGTCACCTAGTGCAG”, for which the binding signal is 13600 fluorescence intensity (a.u.). For “ATTAATTAGCTGCTGCTGTCGTTTCATTTTTTCTTCTTTCCGGAGTCACCTAGTGCAG” the value was 11900 fluorescence intensity (a.u.); for “CAACACACACAAACTTCCAACATTTTCATCATATCGTTTTCGGAGTCACCTAGTGCAG”, 8160 fluorescence intensity (a.u.). “ATGGGGTTTAAGTAAATTTCCTTTTGACAGGGATCTGCTCCGGAGTCACCTAGTGCAG”: the binding signal was 8430 fluorescence intensity (a.u.). As for “AGTTCCCACATGCTGCTAAATTTTCTCGGAAATTTTTATTCGGAGTCACCTAGTGCAG”, the figure is 10000 fluorescence intensity (a.u.). As to “ACACTTCACTGTGTCCTTCAGCTGTATCCCAGAAGTTACTCGGAGTCACCTAGTGCAG”, the binding signal is 9120 fluorescence intensity (a.u.).

As for “TTAATCCCACATATCATATACACATTGCGTCTTGTAGTCTCGGAGTCACCTAGTGCAG”, the binding signal is 11000 fluorescence intensity (a.u.). Regarding “TGCTATATCTCACTCGAAAGATTTTTTCTTATCTCTCACTCGGAGTCACCTAGTGCAG”, the binding signal was 8440 fluorescence intensity (a.u.). Take “ACCTGCTGTGCGCACCGCCCTGCGTTCCTTTGCTTCACCACGGAGTCACCTAGTGCAG”: the binding signal is 10300 fluorescence intensity (a.u.). For “ACATGTAACGTTTGTTCAAGCAATTATACTACTACCATAGCGGAGTCACCTAGTGCAG” the value was 8290 fluorescence intensity (a.u.); for “TTATTCTGTTCATCCACCGGTTTTATCACAACTTGCTAAACGGAGTCACCTAGTGCAG”, 10600 fluorescence intensity (a.u.); for “GCCATTGAAACCGCCGAGGGACCTAATATGCACCGGTTTTCGGAGTCACCTAGTGCAG”, 8280 fluorescence intensity (a.u.). For “ATCGAACCTTATCTCCTTCTCTCTCGTCGCTTTCTGCGTCCGGAGTCACCTAGTGCAG” the value was 8730 fluorescence intensity (a.u.); for “AAATCTTACATAGCCCACGTTGACTAACCCCGTGTTGAGACGGAGTCACCTAGTGCAG”, 8920 fluorescence intensity (a.u.). On to “GCCCATGTACGATGACGTGTACCCTATTGTCTTCTACTAGCGGAGTCACCTAGTGCAG”, for which the binding signal was 8170 fluorescence intensity (a.u.). As for “CCCTTCATCTCGCCGCCGCCGCCTCACTCGTCTCGTGCCCCGGAGTCACCTAGTGCAG”, the figure is 9620 fluorescence intensity (a.u.); as for “CAAGGTCCTAGTACTATTTCGTATGCTACGGTTTTTCCTGCGGAGTCACCTAGTGCAG”, 9310 fluorescence intensity (a.u.). Regarding “CCTTTAAGTCTATATCTCTCTCATCCGATTCCTATGTTTTCGGAGTCACCTAGTGCAG”, the binding signal was 11200 fluorescence intensity (a.u.). For “TATTTCATTGTTTGTGATTTCTTTTTTGGCTTTTAATACACGGAGTCACCTAGTGCAG” the value was 13800 fluorescence intensity (a.u.); for “AGGTGTGGCTTTGTGTCCTTGTTTTTCTTATGTGGGAAGTCGGAGTCACCTAGTGCAG”, 9060 fluorescence intensity (a.u.); for “TGCAATGCCACCGTCAAGTACGCCTCCCGCCGCCTCCGCGCGGAGTCACCTAGTGCAG”, 8180 fluorescence intensity (a.u.).

For the sequence “CCTCCAATCTCGCTCCACGAATCGCTGCCTTGGAAACCGACGGAGTCACCTAGTGCAG”, the binding signal is 8860 fluorescence intensity (a.u.). As for “CCGGTACGTTTATCCACTGACCACTGGCATGCACGGCGAGCGGAGTCACCTAGTGCAG”, the figure is 8810 fluorescence intensity (a.u.); as for “TCCCGAAACGCCGCCGCCTCCCCTCCTCATCGCTCCGCCTCGGAGTCACCTAGTGCAG”, 8500 fluorescence intensity (a.u.).
